Measurements from patent US20150329512A1, “METHOD AND PHARMACEUTICAL COMPOSITION FOR TREATING LUNG CANCER” (National Dong Hua University, priority 2014, published 2015).
At least one compound was matched to its structure with a doubt left.

What was measured:
[1] = test system: A549 cells; experiment: MTT assay, cell viability; type: cell-based, human; settings: PG treatment, 24 or 48 hr (FIG. 3)
Procedure: A549 (lung cancer cell line, non-resistance) and Anti-Dox-A549 (lung cancer cell line with resistance to Doxorubicin) were maintained in DMEM supplemented with 10% fetal bovine serum (FBS, Gibco), pH 7.4, 37° C. and with continuous circulation of 5% CO2. The medium was changed every 2 days and the cells were trypsinized with trypsin/EDTA when reaching 80%-90% confluence.
A549 and Anti-Dox-A549 were treated by the following treatment (Table 1) for 24 or 48 hr for examining the effects of HCD, PG, and Dox on their viability.
Dox1is referred as Dox of 1 μM; Dox2.5 is referred as Dox of 2.5 μM; Dox5 is referred as Dox of 5 μM; Dox10 is referred as Dox of 10 μM; Dox100 is referred as Dox of 100 μM. HCD2.5 is referred as HCD of 2.5 μM; HCD10 is referred as HCD of 10 μM; HCD25 is referred as HCD of 25 μM; HCD50 is referred as HCD of 50 μM. PG2.5 is referred as PG of 2.5 μM; PG5 is referred as PG of 5 μM; PG10 is referred as PG of 10 μM; PG20 is referred as PG of 20 μM.
In this example, the effects of HCD, PG, and Dox on the viability of A549 and anti-Dox-A549 were examined. The MTT assay was employed for this purpose. […] MTT (yellow tetrazolium salt) is reduced to a purple formazan by living cells and detection to the purple formazan can be calculated as the cell viability. […]

[2] = test system: A549 cells; experiment: Cell cycle analysis by flow cytometer (PI staining); type: cell-based, human
Procedure: (§1) The results of Example 2 in cell viability hinted the effects of HCD, PG, and Dox on arresting cell cycle. In this example, the phase of cell cycle of A549 cells and Anti-Dox-A549 cells after the treatment listed in Table 1 was determined by flow cytometer. Briefly, 7×10^4 cells per well were to inoculated in 12-wells plate and incubated overnight at 37° C., 5% CO2. Then, cells were treated according to the treatment listed in Table 1 by indicated time period. After treatment, cells were harvested by trypsin and fixed with 70% ethanol at −20° C. for at least 3 hr. The cells were washed in cold PBS twice and then incubated with 1 ml (v/v) staining solution (20 μg/m1 propidium iodide (PI), 0.1% Triton X-100, 0.2 mg/ml Rnase) at 37° C. for 30 minutes. Lastly, cells were analyzed by flow cytometer (Cytomics™ FC500, Backman, Fullerton, Calif., USA). Data from 10,000 cells were collected for each experimental group.

[3] = test system: Anti-Dox-A549 cells; experiment: as above; type: cell-based, human
Procedure: as §1

[4] = test system: human lung cancer in lung of mice; experiment: Mouse model bearing human lung cancer in lung (A549 or Anti-Dox-A549 cells injected); settings: after thirty days

SMILES: CCCCCC1=C/C(=C/c2[nH]c(-c3ccc[nH]3)cc2OC)N=C1C [PG, Prodigiosin]
- IC50 of A549 cells compared with Anti-Dox-A549 cells [1]: slightly lower than that of Anti-Dox-A549 cells
- cell cycle effect compared with the control group ([2]; Tables 3 and 5): increased cell cycle arrest at G2/M phase
- cell cycle effect of pre-treatment and subsequent Dox ([2]; Tables 9 and 11): increased sub G1 phase and arrested at G2/M phase
- cell cycle effect compared with the control group ([3]; Tables 2 and 4): increased cell cycle arrest at G2/M phase
- cell cycle effect of pre-treatment and subsequent Dox ([3]; Tables 8 and 10): increased sub G1 phase and arrested at G2/M phase
- H&E and IHC staining of the lung ([4]; HCD 0.0318 or 1.272 mg/kg, PG 0.1615 or 0.646 mg/kg body weight, IT injection to the lung): less cell invention around blood vessels 1 and less cell accumulation 2 around the trachea 4
- metastasis in livers, kidneys and spleens ([4]; mice treated by IT injection to the lung, data not shown): no metastasis happened
